The values that follow come from PubChem BioAssay AID192 (DTP/NCI, 2004).

The list shows only some results of the screen, not a fair sample: it gathers tests that were run many times, whatever their T/C, doses with no T/C, and many T/C values between a quarter and a half above the control. Further doses and runs are listed elsewhere. T/C is the treated group as % of the vehicle group. Some entries give survivors of the animals treated and no T/C: the source files T/C as zero there, which appears to mark a toxic dose or a test without result, not a measured value. Some survivor counts are full or nearly so, which does not show that the dose was tolerated: survival well below the control is almost never listed, so the zero probably covers shortened survival too. Survivors were counted at the toxicity check, usually on the fifth day, unless a day is given; later deaths do not show. Schedule codes are those of the source, read here as Q, the interval in days (D) or hours (H), X, the number of doses. Some entries were tested several times; the results are listed from low to high. Where survival is the endpoint, this PubChem deposit counts one and a half times the control or more as active, and values a quarter to a half above the control carry no call in these data; other NCI protocols may use other cut-offs.

This assay relates to BDF1 mice, B16 melanoma ip, median survival T/C. Put plainly: NCI In Vivo Anticancer Drug Screen. Data for tumor model B16 Melanoma (intraperitoneal) in B6D2F1 (BDF1) mice. As to conditions: T/C endpoint: median survival time, higher T/C = longer survival. Put shortly: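 Values are ratios of treated (T) to vehicle-control (C) measurements of survival or tumor size in tumor-bearing mice.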

Setting [1] is: dose: 3.12 mg/kg/injection, schedule: Q01DX009 (ip), vehicle: Klucel (hydroxypropylcellulose) (HPC).
Where [2] appears, read: dose: 12.5 mg/kg/injection, schedule: Q01DX009 (ip), vehicle: Klucel (hydroxypropylcellulose) (HPC).
The mark [3] stands for this setting: dose: 400.0 mg/kg/injection, schedule: Q01DX009 (ip), vehicle: Klucel (hydroxypropylcellulose) (HPC).
The mark [4] stands for this setting: dose: 50.0 mg/kg/injection, schedule: Q01DX009 (ip), vehicle: saline with Tween-80.
Setting [5] is: dose: 50.0 mg/kg/injection, schedule: Q01DX009 (ip), vehicle: saline.
The mark [6] stands for this setting: dose: 100.0 mg/kg/injection, schedule: Q01DX009 (ip), vehicle: saline.
Setting [7] is: dose: 200.0 mg/kg/injection, schedule: Q01DX009 (ip), vehicle: saline with Tween-80.
Setting [8] is: dose: 200.0 mg/kg/injection, schedule: Q01DX009 (ip), vehicle: saline.
The mark [9] stands for this setting: dose: 400.0 mg/kg/injection, schedule: Q01DX009 (ip), vehicle: saline.
The mark [10] stands for this setting: dose: 100.0 mg/kg/injection, schedule: Q01DX009 (ip), vehicle: Klucel (hydroxypropylcellulose) (HPC).
The mark [11] stands for this setting: dose: 200.0 mg/kg/injection, schedule: Q01DX009 (ip), vehicle: Klucel (hydroxypropylcellulose) (HPC).

Regarding `CC(=O)N(C)N=Nc1ccc(C)cc1`, the T/C runs as follows: (dose: 35.0 mg/kg/injection, schedule: Q01DX009 (ip), vehicle: Klucel (hydroxypropylcellulose) (HPC)) 127 % of control; (dose: 70.0 mg/kg/injection, schedule: Q01DX009 (ip), vehicle: Klucel (hydroxypropylcellulose) (HPC)) 130 % of control.
As for `CCCCCCCCCCNCCC(=O)O`, the survivor count is on record as 9 of 10 (dose: 75.0 mg/kg/injection, schedule: Q01DX009 (ip), vehicle: saline) and 0 of 10 (dose: 150.0 mg/kg/injection, schedule: Q01DX009 (ip), vehicle: saline).
Regarding `O=C(CCCN1CC=C(n2c(=O)[nH]c3ccccc32)CC1)c1ccc(F)cc1`, the survivor count by setting is: under setting [1], 10 of 10; under setting [2], 10 of 10; under setting [3], 2 of 10.
`CC(Cl)CN(CC(C)Cl)C(=O)OCC(NC(=O)OCc1ccccc1)C(=O)OCc1ccccc1` (stereo unspecified): the survivor count by setting is: (dose: 50.0 mg/kg/injection, schedule: Q04DX003 (ip), vehicle: Klucel (hydroxypropylcellulose) (HPC)) 10 of 10; (dose: 100.0 mg/kg/injection, schedule: Q04DX003 (ip), vehicle: Klucel (hydroxypropylcellulose) (HPC)) 10 of 10; (dose: 200.0 mg/kg/injection, schedule: Q04DX003 (ip), vehicle: Klucel (hydroxypropylcellulose) (HPC)) 9 of 10; (dose: 400.0 mg/kg/injection, schedule: Q04DX003 (ip), vehicle: Klucel (hydroxypropylcellulose) (HPC)) 10 of 10.
For `CS(=O)(=O)OCCN(CCOS(C)(=O)=O)c1ccc(/C=N/Nc2ncnc3nc[nH]c23)cc1`, the survivor count by setting is: (dose: 25.0 mg/kg/injection, schedule: Q01DX009 (ip), vehicle: saline) 10 of 10; under setting [4], 10 of 10; under setting [5], 10 of 10; under setting [6], 10 of 10; under setting [7], 10 of 10; under setting [8], 10 of 10. Also, the T/C (dose: 50.0 mg/kg/injection, schedule: Q04DX003 (ip), vehicle: saline with Tween-80) is 138 % of control; the T/C (dose: 100.0 mg/kg/injection, schedule: Q04DX003 (ip), vehicle: saline with Tween-80, evaluated on day 45) is 145 % of control; the T/C (dose: 100.0 mg/kg/injection, schedule: Q04DX003 (ip), vehicle: saline with Tween-80, evaluated on day 60) was 126 % of control; the T/C (dose: 200.0 mg/kg/injection, schedule: Q04DX003 (ip), vehicle: saline with Tween-80, evaluated on day 45) is 140 % of control; the T/C (dose: 200.0 mg/kg/injection, schedule: Q04DX003 (ip), vehicle: saline with Tween-80, evaluated on day 60) is 128 % of control.
For `Cc1nccc(=O)[nH]1`, the survivor count is recorded as 0 of 10 under setting [9] and 5 of 10 (dose: 400.0 mg/kg/injection, schedule: Q04DX003 (ip), vehicle: saline).
As for `O=C(NO)c1ccncc1`, the survivor count by setting is: (dose: 400.0 mg/kg/injection, schedule: Q01DX009 (ip), vehicle: water) 6 of 6; (dose: 800.0 mg/kg/injection, schedule: Q01DX009 (ip), vehicle: water) 6 of 6; (dose: 1000.0 mg/kg/injection, schedule: Q01DX009 (ip), vehicle: water) 0 of 6. The T/C (dose: 500.0 mg/kg/injection, schedule: Q01DX009 (ip), vehicle: water) was 126 % of control.
Regarding `COC(=O)C1C(O)C(C)C(O)C(C)/C=C\C=C(C)C(=O)Nc2c(C)c(OC(C)=O)c3c(c2O)C(=O)C(C)=C2OCOC(=C23)C(C)=CC(C)(O)C(O)C(C)C1O` (stereo unspecified), the survivor count under setting [10] is on record as 10 of 10, the survivor count under setting [11] was 10 of 10 and the survivor count under setting [3] is 1 of 10.
As for `Nc1[nH]c(=O)nc2nc[nH]c12`, the survivor count under setting [6] was 6 of 10, the survivor count under setting [8] is 4 of 10 and the survivor count under setting [9] is listed as 3 of 10.
Regarding `ClCCN(CC#CCCCC#CCN(CCCl)CCCl)CCCl`, the T/C (dose: 6.25 mg/kg/injection, schedule: Q01DX009 (ip), vehicle: saline) was 139 % of control. Moreover, the survivor count under setting [5] is reported as 2 of 10.
As to `O=[N+]([O-])/C=C/c1ccc2ccccc2c1`, the survivor count by setting is: under setting [11], 8 of 10; under setting [3], 0 of 10.
Consider `CSC(=S)N/N=C/c1ccccn1`, for which the survivor count under setting [4] is 5 of 6; the survivor count (dose: 100.0 mg/kg/injection, schedule: Q01DX009 (ip), vehicle: saline with Tween-80) is given as 0 of 6; the survivor count under setting [7] is 2 of 6.
`COc1ccccc1NC(=O)Nc1cccc(C)c1C`: the survivor count under setting [3] is reported as 10 of 10.
As to `CO[C@H]1Nc2c(ccc(C)c2O)C(=O)N2C=C(/C=C/C(N)=O)C[C@@H]12`, for the setting “dose: 0.8 mg/kg/injection, schedule: Q04DX003 (ip), vehicle: DMSO”, the survivor count is on record as 9 of 10.
With `CC(C)CC(NC(=O)CNC(=O)/C=C/c1ccco1)C(N)=O` (stereo unspecified), where the note is “dose: 25.0 mg/kg/injection, schedule: Q01DX009 (ip), vehicle: saline with Tween-80”, the T/C is 128 % of control.
As for `ClC1=C(Cl)C(Cl)=C(Cl)C1=Cc1ccccc1`, the survivor count under setting [4] is listed as 0 of 10.
Take `Cc1ccc(CNc2cccc([N+](=O)[O-])c2)cc1`: the survivor count under setting [3] is recorded as 8 of 10.
On to `C1CCC2[N-]CC3CCCCC3[N-]CC3CCCCC3[N-]CC3CCCCC3[N-]CC2C1.[Cu]` (stereo unspecified), for which the T/C was 133 and 139 % of control under setting [1]; 133, 152, 165, 167 % of control (dose: 6.25 mg/kg/injection, schedule: Q01DX009 (ip), vehicle: Klucel (hydroxypropylcellulose) (HPC)); 128, 162, 172, 178 % of control under setting [2]. The survivor count reads like this: (dose: 25.0 mg/kg/injection, schedule: Q01DX009 (ip), vehicle: Klucel (hydroxypropylcellulose) (HPC)) 6 of 10, 9 of 10, 10 of 10; (dose: 50.0 mg/kg/injection, schedule: Q01DX009 (ip), vehicle: Klucel (hydroxypropylcellulose) (HPC)) 0 of 10 and 1 of 10; under setting [10], 0 of 10.
Turning to `NC(=S)N/N=C/c1ccc(O)cn1`, the T/C reads like this: (dose: 9.4 mg/kg/injection, schedule: Q01DX009 (ip), vehicle: saline with Tween-80) 131 % of control; (dose: 150.0 mg/kg/injection, schedule: Q01DX009 (ip), vehicle: saline with Tween-80) 126 % of control. Besides, the survivor count runs as follows: under setting [8], 10 of 10 and 6 of 6; (dose: 300.0 mg/kg/injection, schedule: Q01DX009 (ip), vehicle: saline with Tween-80) 10 of 10; under setting [9], 10 of 10 and 6 of 6; (dose: 800.0 mg/kg/injection, schedule: Q01DX009 (ip), vehicle: saline) 6 of 6.
As for `Cl[C](Cl)(Cl)[Hg][c]1ccccc1`, the survivor count by setting is: (dose: 0.75 mg/kg/injection, schedule: Q01DX009 (ip), vehicle: saline) 10 of 10; (dose: 1.5 mg/kg/injection, schedule: Q01DX009 (ip), vehicle: saline with Tween-80) 10 of 10; (dose: 3.0 mg/kg/injection, schedule: Q01DX009 (ip), vehicle: saline with Tween-80) 10 of 10; (dose: 6.0 mg/kg/injection, schedule: Q01DX009 (ip), vehicle: saline with Tween-80) 10 of 10; (dose: 12.0 mg/kg/injection, schedule: Q01DX009 (ip), vehicle: saline with Tween-80) 9 of 10; (dose: 24.0 mg/kg/injection, schedule: Q01DX009 (ip), vehicle: saline with Tween-80) 3 of 10.
Consider `COc1cc([N+](=O)[O-])c2ncccc2c1`, for which the survivor count under setting [3] is 6 of 6.
`CC(=O)CC(=O)Nc1cc(C)c(NC(=O)CC(C)=O)cc1C`: the survivor count under setting [3] was 10 of 10.
